Assay results taken from PMC10593849.
Results are given in words; binding and its absence hold for the method and conditions named. Binding seen in cells or lysates may run through a third protein. Some binding calls cover weakened binding; strength is not graded here.

Sequences of proteins named here, by UniProt entry; tags and fusion partners are left off.
UniProt Q00534: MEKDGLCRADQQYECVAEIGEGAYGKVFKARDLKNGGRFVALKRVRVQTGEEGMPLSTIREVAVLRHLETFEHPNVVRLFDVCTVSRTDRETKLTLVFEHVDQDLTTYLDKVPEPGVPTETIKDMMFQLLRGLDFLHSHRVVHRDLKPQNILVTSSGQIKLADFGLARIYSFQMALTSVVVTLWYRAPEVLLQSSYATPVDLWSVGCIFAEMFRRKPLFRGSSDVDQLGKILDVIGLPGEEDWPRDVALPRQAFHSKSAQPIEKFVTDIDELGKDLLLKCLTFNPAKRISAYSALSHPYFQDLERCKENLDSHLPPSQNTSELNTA
UniProt P49841: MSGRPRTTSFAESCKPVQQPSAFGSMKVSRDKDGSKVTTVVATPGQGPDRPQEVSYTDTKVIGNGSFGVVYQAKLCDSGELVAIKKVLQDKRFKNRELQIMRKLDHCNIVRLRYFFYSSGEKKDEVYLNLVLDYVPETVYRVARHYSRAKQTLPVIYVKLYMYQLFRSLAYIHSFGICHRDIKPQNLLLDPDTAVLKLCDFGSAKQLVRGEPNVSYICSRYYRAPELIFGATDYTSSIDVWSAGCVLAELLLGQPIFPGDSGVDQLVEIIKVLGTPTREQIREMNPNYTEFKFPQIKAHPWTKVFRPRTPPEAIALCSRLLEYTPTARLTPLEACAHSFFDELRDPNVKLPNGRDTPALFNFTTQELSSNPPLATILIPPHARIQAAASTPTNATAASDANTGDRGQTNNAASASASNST

Key:
[1] = target: cyclin-dependent kinase 6 (CDK6) (human (endogenous in MHCC-97L, Hep3B, PLC/PRF/5 and Huh7)) (UniProt Q00534); experiment: co-IP; endogenous proteins; protein lysate incubated with anti-CDK6 (D4S8S) or anti-GSK3β (clone 7) antibody and Protein A agarose beads at 4 °C overnight; normal rabbit or mouse IgG as control; MHCC-97L, Hep3B and lenvatinib-resistant HCC cells; immunoblot
[2] = target: GSK3β (human (endogenous in MHCC-97L, Hep3B, PLC/PRF/5 and Huh7)) (UniProt P49841); experiment: as above

binding [1]	binding [2]	Substance
binds		GSK3β (from UniProt P49841 1-420)
	binds	cyclin-dependent kinase 6 (CDK6) (from UniProt Q00534 1-326)
